PubChem BioAssay AID1224826, NIAID – 2016
Assay: 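Genes that change LPS-induced Tnf promoter activity in mouse macrophages when knocked down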 (primary screen). Cell system: RAW264.7 G9 macrophages from mouse bearing reporters for p65 (GFP) and the Tnf promoter (mCherry). Reagent: siRNA pool against mouse genes, 100 nM. Timing: 16 h of LPS stimulation, after 2 days of siRNA transfection. Conditions: bacterial lipopolysaccharide (Salmonella minnesota R595), 10 ng/ml. Measurement: 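Imaged Tnf reporter mCherry in nuclei, minus background, normalised per plate to the median and expressed as robust z-scores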. Reading the numbers: Tnf reporter robust z-score: higher = stronger Tnf promoter reporter signal after LPS; Tnf reporter intensity: higher = stronger Tnf promoter reporter signal. Active means: 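a well counts as active at a score of -1.3 or below (Tlr4 knock-down control median) or above 3 (raised signal); controls and wells holding fewer than 50 cells are excluded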. Calls: active = Tnf reporter clearly lowered or raised; inactive = no clear change in Tnf reporter.
Shown is an unselected part of about 17,000 reagents tested. Over the whole deposit, about 1,110 (6.6%) were called active. 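Active means lowered or raised reporter signal; replicate intensities are raw and not normalised per plate.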

| gene knocked down | Tnf reporter robust z-score | fewer than 50 cells in well | Tnf reporter intensity, replicate 1 | Tnf reporter intensity, replicate 2 | Outcome |
| --- | --- | --- | --- | --- | --- |
| Per1 | 0.08 | enough cells in well | 238 | 194 | inactive |
| Tas1r2 | -0.36 | enough cells in well | 203 | 119 | inactive |
| Nxt2 | -0.35 | enough cells in well | 164 | 122 | inactive |
| Agpat4 | 1.43 | enough cells in well | 324 | 260 | inactive |
| Bhlha9 | -0.58 | enough cells in well | 132 | 160 | inactive |
| Slc5a5 | -0.02 | enough cells in well | 209 | 148 | inactive |
| Ces1e | -1.58 | enough cells in well | 139 | 48.5 | active |
| Or6c216 | 2.67 | enough cells in well | 164 | 254 | inactive |
| Naa16 | -0.74 | enough cells in well | 214 | 34.3 | inactive |
| Nr1h3 | -2.13 | enough cells in well | 76.5 | 74.9 | active |
| Rhcg | -0.69 | enough cells in well | 84.5 | 92.8 | inactive |
| Or5b12 | 0.42 | enough cells in well | 204 | 139 | inactive |
| Hjv | 2.01 | enough cells in well | 258 | 171 | inactive |
| Insm1 | 0.47 | enough cells in well | 258 | 188 | inactive |
| Krt15 | -1.21 | enough cells in well | 169 | 69.4 | inactive |
| Prpf4b | -0.69 | enough cells in well | 155 | 119 | inactive |
| Ak8 | -0.03 | enough cells in well | 149 | 154 | inactive |
| Foxi1 | 1.13 | enough cells in well | 339 | 339 | inactive |
| Grin3b | -0.24 | enough cells in well | 254 | 132 | inactive |
| Cox20 | – | fewer than 50 cells per well; well left out of calls | 154 | 86.7 | inactive |
| Snrnp27 | -1.47 | enough cells in well | 126 | 35.5 | active |
| Fgfbp1 | -0.87 | enough cells in well | 186 | 162 | inactive |
| BC005537 | -0.21 | enough cells in well | 191 | 194 | inactive |
| Tgfb2 | 2.33 | enough cells in well | 399 | 250 | inactive |
| Or8b57 | 0.34 | enough cells in well | 150 | 162 | inactive |
| Retreg1 | 0.09 | enough cells in well | 173 | 107 | inactive |

Reformatted: 9 of the entries above.
gene knocked down | Tnf reporter robust z-score | fewer than 50 cells in well | Tnf reporter intensity, replicate 1 | Tnf reporter intensity, replicate 2 | Outcome
Bhlha9 | -0.58 | enough cells in well | 132 | 160 | inactive
Slc5a5 | -0.02 | enough cells in well | 209 | 148 | inactive
Ces1e | -1.58 | enough cells in well | 139 | 48.5 | active
Or6c216 | 2.67 | enough cells in well | 164 | 254 | inactive
Naa16 | -0.74 | enough cells in well | 214 | 34.3 | inactive
Nr1h3 | -2.13 | enough cells in well | 76.5 | 74.9 | active
Rhcg | -0.69 | enough cells in well | 84.5 | 92.8 | inactive
Or5b12 | 0.42 | enough cells in well | 204 | 139 | inactive
Hjv | 2.01 | enough cells in well | 258 | 171 | inactive

The list goes on:
| gene knocked down | Tnf reporter robust z-score | fewer than 50 cells in well | Tnf reporter intensity, replicate 1 | Tnf reporter intensity, replicate 2 | Outcome |
| --- | --- | --- | --- | --- | --- |
| Lama3 | -0.53 | enough cells in well | 219 | 107 | inactive |
| Gpr85 | -0.21 | enough cells in well | 183 | 304 | inactive |
| Ankrd6 | -0.82 | enough cells in well | 161 | 124 | inactive |
| Ttc7 | – | fewer than 50 cells per well; well left out of calls | 81.3 | 75.6 | inactive |
| Rhox2a | – | fewer than 50 cells per well; well left out of calls | 252 | 131 | inactive |
| Ryr1 | -0.13 | enough cells in well | 318 | 181 | inactive |
| Cwc15 | -0.58 | enough cells in well | 229 | 49.9 | inactive |
| Ccdc51 | -0.55 | enough cells in well | 176 | 89 | inactive |
| Ptbp1 | -0.15 | enough cells in well | 203 | 208 | inactive |
| Pan3 | 0.54 | enough cells in well | 292 | 74.6 | inactive |
| Usp27x | 1.73 | enough cells in well | 172 | 155 | inactive |
| Or2ak6 | 2.74 | enough cells in well | 359 | 225 | inactive |
| Grm8 | 0.21 | enough cells in well | 219 | 336 | inactive |
| Stra6 | – | fewer than 50 cells per well; well left out of calls | 51 | 53.4 | inactive |
| Mybpc2 | -0.07 | enough cells in well | 217 | 106 | inactive |
| Ccl5 | -0.38 | enough cells in well | 220 | 177 | inactive |
| Or1e22 | -1.2 | enough cells in well | 124 | 60.4 | inactive |
| Pde4b | 0.97 | enough cells in well | 349 | 218 | inactive |
| Or4d10b | 0.21 | enough cells in well | 178 | 140 | inactive |
| H2-DMb1 | -0.52 | enough cells in well | 166 | 182 | inactive |
| Gdap1 | 0.22 | enough cells in well | 309 | 222 | inactive |
| Dntt | 0.42 | enough cells in well | 270 | 230 | inactive |
| Or1f12 | 0.45 | enough cells in well | 188 | 153 | inactive |
| Pla2g2c | -1.29 | enough cells in well | 89.3 | 57.4 | inactive |
| Tmem11 | -0.99 | enough cells in well | 118 | 240 | inactive |
| Rasl2-9 | 1.81 | enough cells in well | 133 | 204 | inactive |
| Mtx1 | 0.63 | enough cells in well | 320 | 249 | inactive |
| Cip2a | -0.31 | enough cells in well | 79.7 | 179 | inactive |
| Htatip2 | -0.93 | enough cells in well | 164 | 97.6 | inactive |
| Smc1b | – | fewer than 50 cells per well; well left out of calls | 57.8 | 58.4 | inactive |
| Gcg | 0.15 | enough cells in well | 211 | 335 | inactive |
| Cblc | -0.68 | enough cells in well | 198 | 153 | inactive |
